First the molecules themselves.
B1: il10ra_site1_sap_22_mot_HHH_b2_06480_af2_000000075_0001_1_18_H_._HHH_b1_05928_0001_0000400032_0000001_0_0001_af2pred_0001 (protein)
chain: SSSSSSAERAVRLTIRSAKQQEDPELRKLSLRDALHSAKHVNDEELREEVERLLEEVESSSSSSS
B2: il10ra_site1_normal_mot_HHH_b2_00273_000000062_0001_23_39_H_._HHH_b1_08219_af2_0001_0000100003_0000002_0 (protein)
chain: SSSSSDEEERLRELLEEVEEAIEEGDDEKALRLIQEALRIVFRLGDQEALQLLWELAKLASSSSS
B3: il10ra_site1_sap_11_mot_HHH_b1_06348_000000162_0001_1_15_H_._HHH_b2_01068_0001_0000300025_0000001_0_0001 (protein)
chain: SSSSDELRELFEAAARLLEQAEEWGDERLIEAMLLALRMLAERLKDPELEREVEELERELSSSSS
B4: il10ra_site1_sap_15_mot_HHH_b1_05357_000000034_0001_23_39_H_._2882495fe543bf04d475310816427418_0001_0001_0000100004_0000001_0_0001_af2pred_0001 (protein)
chain: SSSSSSSAERAVRLLLRAAKEIEDEEALKLALRDAEAAARSLNDEELEELVEEVKRELSSSSSSS
B5: il10ra_site1_sap_16_mot_HHH_b2_07145_000000168_0001_24_40_H_._HHH_b1_00810_0001_0000100002_0000002_0_0001_af2pred_0001 (protein)
chain: SSSSSDREVVRRVRELLRRALEIEDEEEAREVLEEALELAEEGNNAVLVAVLRYALERLDSSSSS
B6: il10ra_site1_normal_mot_HHH_b1_00999_000000080_0001_41_55_H_._ems_p1-16H-GBL-16H-GABBL-15H_0180_0001_0001_0002_0001_0000700042_0000001_0 (protein)
chain: SSSSSSEVIQLIQRAVRAAFRNGDEEALRQLWELVKKFGEGIISEEEAREIAEEILEELGSSSSS
B7: il10ra_site1_sap_22_mot_HHH_b1_04940_000000219_0001_1_18_H_._HHH_b1_07376_0001_0000200013_0000001_0_0001 (protein)
chain: SSSSSSDEEEVEELLEEAEKISDERERNEVLIRALKIAIQLGNPELLQLVWEVVHKLNSSSSSSS
B8: il10ra_site1_normal_mot_HHH_b1_00682_000000211_0001_1_20_H_._HHH_b2_05022_af2_0001_0000300024_0000002_0 (protein)
chain: SSSSDAEELAEEVIRRLEELLERGDNDEVYKLLREAVEELRELNNEEALRLLIEFVAHLFSSSSS
B9: il10ra_site1_normal_mot_HHH_b2_01310_000000089_0001_41_55_H_._HHH_b1_07197_af2_0001_0000300012_0000001_0_af2pred_0001 (protein)
chain: SSSSSEVEKRVEELLEEAEQLIEEGDEEEVIRLLREALRFALEAQNPELIELVYEVARLLSSSSS
B10: il10ra_site1_sap_21_mot_HHH_b2_07006_000000108_0001_1_19_H_._HHH_b1_04108_af2_0001_0000200002_0000001_0_0001 (protein)
chain: SSSSDASRRIYELLRRAMELLDEGNPEEARKLVEEAEELAEEANNMILLEVLKFVEEQINSSSSS
B11: il10ra_site1_normal_mot_b26a303360aa2756ef5b79665ce52f45_0001_000000179_0001_1_11_H_._HHH_b1_06778_0001_0000200024_0000001_0_af2pred_0001 (protein)
chain: SSSSSSSDESVKLIRRVVELARLNTEESREEIKEIIEILEELGTLIALVAARHLLRAHSSSSSSS
B12: il10ra_site1_sap_16_mot_HHH_b1_03314_af2_000000278_0001_42_55_H_._HHH_b1_02981_0001_0000200012_0000001_0_0001 (protein)
chain: SSSSSAQEVFELLKRAIELAKEGNPEEAEELLKRAEEIAEEQNSKVMKWVIEFVEEEVKRLSSSS
B13: il10ra_site1_normal_mot_HHH_b1_04771_000000013_0001_40_56_H_._HHH_b2_04957_af2_0001_0000400010_0000002_0 (protein)
chain: SSSSDELVEEAVKLSTKAFELALRGNKEEAEKVLEEAEEIAEEGNDPRIREVVEDLKEALSSSSS
B14: il10ra_site1_normal_mot_HHH_b1_01874_000000035_0001_1_20_H_._HHH_b2_03660_0001_0000200010_0000001_0 (protein)
chain: SSSSDLFEEVRELLEQAFELLHEGNPEEAERLAEEALKLAEERNNDVFRFSIRLLLRDIGSSSSS
B15: il10ra_site1_normal_mot_HHH_b1_05370_000000138_0001_1_16_H_._HHH_b2_06500_af2_0001_0000400005_0000002_0 (protein)
chain: SSSSDEEIEERVKELLEEAEKTDDVDEFYELLREAIELAAEGRDPELLELVREILRRFLRSSSSS
B16: il10ra_site1_normal_mot_HHH_b1_05254_000000006_0001_1_19_H_._HHH_b1_03268_0001_0000200021_0000002_0 (protein)
chain: SSSSSADEAYELLRRAIELAKEGNPEEARELLKEAKEIAEELNSEVLKWLIEFVEEEVEKSSSSS
B17: il10ra_site1_normal_mot_HHH_b2_02053_af2_000000006_0001_3_19_H_._HHH_b1_03421_0001_0000100006_0000002_0 (protein)
chain: SSSSSDAAEEVYRLSREALELRARGNPEEARRVAEEAEEVAEEGNNPVLLIVVRFLLRDLSSSSS
B18: il10ra_site1_sap_19_mot_HHH_b2_00401_000000001_0001_40_54_H_._HHH_b2_02467_af2_0001_0000300016_0000002_0_0001 (protein)
chain: SSSSDEERRRLARLMEEFVEAFIRNDEELVRELTEEAAKLAQELGNERLLKFLEDMERSLSSSSS

From paper PMC10163288 come the findings set out here.

This is one part of the list.

The target of the test is il10ra, Q13651. The test is described as follows: yeast display titration.
Turning to B1, the “apparent Kd” value was “inactive: no binding seen”.
As for B2, the “apparent Kd” value is “inactive: no binding seen”.
Regarding B3, the “apparent Kd” value is “inactive: no binding seen”.
With B4, the “apparent Kd” value is “inactive: no binding seen”.
Turning to B5, the “apparent Kd” value is “inactive: no binding seen”.
On to B6, for which the “apparent Kd” value is “inactive: no binding seen”.
With B7, the “apparent Kd” value is “inactive: no binding seen”.
On to B8, for which the “apparent Kd” value was “inactive: no binding seen”.
For the molecule B9, the “apparent Kd” value is “inactive: no binding seen”.
For B10, the “apparent Kd” value is “inactive: no binding seen”.
As to B11, the “apparent Kd” value was “inactive: no binding seen”.
On to B12, for which the “apparent Kd” value was “inactive: no binding seen”.
For B13, the “apparent Kd” value was “inactive: no binding seen”.
Take B14: the “apparent Kd” value was “inactive: no binding seen”.
To B15 belongs “inactive: no binding seen”; to B16, “inactive: no binding seen”; to B17, “inactive: no binding seen”.
The entry for B18 is “inactive: no binding seen”.
